These are yes or no findings as the source states them, for the method shown. Some entries that bind do so weakly or less than the wild type.
T1: mouse PDGFR β ECD (R&D Systems) (mouse, UniProt P05622 32-531)
T1 construct: extracellular domain; Bought; also called mECD; mouse ECD
T1 sequence (looked up): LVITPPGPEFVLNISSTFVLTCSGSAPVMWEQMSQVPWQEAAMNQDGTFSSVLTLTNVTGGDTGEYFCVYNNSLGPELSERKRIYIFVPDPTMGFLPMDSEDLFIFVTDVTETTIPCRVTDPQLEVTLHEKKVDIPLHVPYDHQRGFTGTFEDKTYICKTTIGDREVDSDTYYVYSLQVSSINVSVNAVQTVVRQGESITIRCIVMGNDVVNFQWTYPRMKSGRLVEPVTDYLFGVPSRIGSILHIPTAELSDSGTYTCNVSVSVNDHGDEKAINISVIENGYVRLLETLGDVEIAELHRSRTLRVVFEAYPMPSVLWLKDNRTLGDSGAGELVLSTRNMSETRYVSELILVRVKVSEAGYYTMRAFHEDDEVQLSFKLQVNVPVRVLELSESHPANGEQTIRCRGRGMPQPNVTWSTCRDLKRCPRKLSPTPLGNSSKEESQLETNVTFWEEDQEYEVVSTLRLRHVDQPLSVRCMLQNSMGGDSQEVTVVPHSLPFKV

B1: 1B5-biotin (VHH)
VHH: EVQLVESGGGLVQPGGSLRLSCVASGFSFSESAMSWVRQAPGKGLEWLSGISSGGGRSTTYAESVEGRFTISRDDAKNTLMLQMNSLKSEDTAVYYCAKTGYCSGYNCNFAPRGQGTQVTVSS
modifications: Biotin-maleimide on the C-terminal cysteine of the C-Direct tag
notes: ID NO: 25 or 26; also called VHH 1B5-biotin; biotin-conjugated 1B5; not shown: C-terminal C-Direct tag with a free cysteine and an EPEA purification tag (vector pYQVQ11)
B2: 1D4-biotin (VHH)
VHH: EVQLVESGGGLVQAGDSLRLSCAVSGRAQSRDVVGWFRQAPGKEREFLALVTRSYSTYYGASVKGRFTISRDNAKNTVHLEMNSLKPEDTGVYYCAADQGFCSGSGCYDWRTFHVWGQGTQVTVSS
modifications: Biotin-maleimide on the C-terminal cysteine of the C-Direct tag
notes: ID NO: 27 or 28; also called biotin-conjugated 1D4; VHH-biotin; not shown: C-terminal C-Direct tag with a free cysteine and an EPEA purification tag (vector pYQVQ11)
B3: 1H4-biotin (VHH)
VHH: EVQLVESGGGLVQPGGSLRVSCSASWRTGNPFAMAWFRQAPGKERELIARISWTAGRTEYAESAKGRFTISRDVAKKTMYLQMNSLTPEDTGVYFCAARFVPSSGPTVFDTWGQGTQVTVSS
modifications: Biotin-maleimide on the C-terminal cysteine of the C-Direct tag
notes: ID NO: 29 or 30; also called biotin-conjugated 1H4; VHH-biotin; not shown: C-terminal C-Direct tag with a free cysteine and an EPEA purification tag (vector pYQVQ11)
B4: 1E12-biotin (VHH)
VHH: EVQLVESGGGLVQAGGSLRLSCAPSERSFSAYLMGWFRQAQGKEREFVAAWRWPTSTTYYSDSGKGRFTITGDNAKNTVELEMNSLKPEDTAVYYCAARRGILYGPATSPTAYDFWGQGTQVTVSS
modifications: Biotin-maleimide on the C-terminal cysteine of the C-Direct tag
notes: ID NO: 31 or 32; also called VHH 1E12-biotin; biotin-conjugated 1E12; not shown: C-terminal C-Direct tag with a free cysteine and an EPEA purification tag (vector pYQVQ11)

Columns and labels:
[1] = target: human PDGFR β extra-cellular domain (ECD), Fc- and His-tagged (Sino Biological) (human) (UniProt P09619); experiment: biotin-streptavidin ELISA on coated human PDGFR β ECD
[2] = target: T1, mouse PDGFR β ECD (R&D Systems); experiment: biotin-streptavidin ELISA on coated mouse PDGFR β ECD
[3] = target: T1, mouse PDGFR β ECD (R&D Systems); experiment: biotin-streptavidin ELISA, mouse PDGFR β ECD coated at 4 ug/ml
Description: In this example, the binding affinity of biotin-conjugated VHHs 1B5 and 1E12 to either human or mouse PDGFR β extra-cellular domain (ECD) was assessed using biotin-streptavidin ELISA. Human or mouse PDGFR β ECD was coated on immunoassay wells, where 1B5-biotin or 1E12-biotin were captured. Binding was detected using streptavidin-HRP and ODP as a substrate.
ELISA Method 96-well maxisorp (Nunc) immunosorp plates were coated with 1 ug/ml or 2 ug/ml of PDGFR β extracellular domain (ECD; Fc- and His-tagged, Sino Biological) or mouse PDGFR β ECD (R&D Systems) 4 ug/ml in PBS, 100 ul per well, at 4C overnight. Wells were washed thrice in PBS. Unspecific binding sites were blocked in 4% BSA/PBS for 1h at RT, followed by washing thrice in PBS. VHHs 1B5-biotin or 1E12-biotin, diluted at 0.01-100 nM in 1% BSA/PBS, was allowed to bind on ECD for 1 h at RT, followed by washing thrice in PBS. Streptavidin-horseradish peroxidase (HRP; GeneTex) was diluted 1:10,000 in 1% BSA/PBS and was incubated for 1 h at RT. […] Optical density was measured at 492 nm on a Synergy H1 microplate reader (BioTek).

[4] = target: human PDGFR β extra-cellular domain (ECD), Fc- and His-tagged (Sino Biological) (human) (UniProt P09619); experiment: ELISA on human PDGFRβ extracellular domain after 3 freeze-thaw cycles, streptavidin-HRP or anti-VHH detection
[5] = target: human PDGFR β extra-cellular domain (ECD), Fc- and His-tagged (Sino Biological) (human) (UniProt P09619); experiment: biotin-streptavidin ELISA, human PDGFR β ECD coated at 2 ug/ml

Row | Binder | binding [1] | binding [2] | binding [3] | binding [4] | binding [5]
1 | B1 | binds | binds | binds | binds | 
2 | B2 |  |  |  | binds | 
3 | B3 |  |  |  | binds | 
4 | B4 | binds | binds | binds | binds | binds

Source: patent US20240174755A1 (published 2024)
